Experimental data reported in the supplement of paper PMC6411743.
± gives the standard deviation of the averaged measurements. The list shows a part of the results.

The chains behind the UniProt entries cited, without tags or fusion partners. Where a name states a change or a piece, a line headed by the entry shows the natural chain unless it says otherwise.
UniProt Q9H4A5: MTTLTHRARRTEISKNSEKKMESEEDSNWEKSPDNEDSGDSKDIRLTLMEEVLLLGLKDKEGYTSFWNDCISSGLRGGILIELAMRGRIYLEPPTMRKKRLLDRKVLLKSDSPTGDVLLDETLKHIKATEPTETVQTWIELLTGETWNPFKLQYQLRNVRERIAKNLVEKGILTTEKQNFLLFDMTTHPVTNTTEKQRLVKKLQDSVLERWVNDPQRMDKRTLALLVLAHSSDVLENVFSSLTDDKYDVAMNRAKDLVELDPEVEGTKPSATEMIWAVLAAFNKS
UniProt Q14686, whole entry: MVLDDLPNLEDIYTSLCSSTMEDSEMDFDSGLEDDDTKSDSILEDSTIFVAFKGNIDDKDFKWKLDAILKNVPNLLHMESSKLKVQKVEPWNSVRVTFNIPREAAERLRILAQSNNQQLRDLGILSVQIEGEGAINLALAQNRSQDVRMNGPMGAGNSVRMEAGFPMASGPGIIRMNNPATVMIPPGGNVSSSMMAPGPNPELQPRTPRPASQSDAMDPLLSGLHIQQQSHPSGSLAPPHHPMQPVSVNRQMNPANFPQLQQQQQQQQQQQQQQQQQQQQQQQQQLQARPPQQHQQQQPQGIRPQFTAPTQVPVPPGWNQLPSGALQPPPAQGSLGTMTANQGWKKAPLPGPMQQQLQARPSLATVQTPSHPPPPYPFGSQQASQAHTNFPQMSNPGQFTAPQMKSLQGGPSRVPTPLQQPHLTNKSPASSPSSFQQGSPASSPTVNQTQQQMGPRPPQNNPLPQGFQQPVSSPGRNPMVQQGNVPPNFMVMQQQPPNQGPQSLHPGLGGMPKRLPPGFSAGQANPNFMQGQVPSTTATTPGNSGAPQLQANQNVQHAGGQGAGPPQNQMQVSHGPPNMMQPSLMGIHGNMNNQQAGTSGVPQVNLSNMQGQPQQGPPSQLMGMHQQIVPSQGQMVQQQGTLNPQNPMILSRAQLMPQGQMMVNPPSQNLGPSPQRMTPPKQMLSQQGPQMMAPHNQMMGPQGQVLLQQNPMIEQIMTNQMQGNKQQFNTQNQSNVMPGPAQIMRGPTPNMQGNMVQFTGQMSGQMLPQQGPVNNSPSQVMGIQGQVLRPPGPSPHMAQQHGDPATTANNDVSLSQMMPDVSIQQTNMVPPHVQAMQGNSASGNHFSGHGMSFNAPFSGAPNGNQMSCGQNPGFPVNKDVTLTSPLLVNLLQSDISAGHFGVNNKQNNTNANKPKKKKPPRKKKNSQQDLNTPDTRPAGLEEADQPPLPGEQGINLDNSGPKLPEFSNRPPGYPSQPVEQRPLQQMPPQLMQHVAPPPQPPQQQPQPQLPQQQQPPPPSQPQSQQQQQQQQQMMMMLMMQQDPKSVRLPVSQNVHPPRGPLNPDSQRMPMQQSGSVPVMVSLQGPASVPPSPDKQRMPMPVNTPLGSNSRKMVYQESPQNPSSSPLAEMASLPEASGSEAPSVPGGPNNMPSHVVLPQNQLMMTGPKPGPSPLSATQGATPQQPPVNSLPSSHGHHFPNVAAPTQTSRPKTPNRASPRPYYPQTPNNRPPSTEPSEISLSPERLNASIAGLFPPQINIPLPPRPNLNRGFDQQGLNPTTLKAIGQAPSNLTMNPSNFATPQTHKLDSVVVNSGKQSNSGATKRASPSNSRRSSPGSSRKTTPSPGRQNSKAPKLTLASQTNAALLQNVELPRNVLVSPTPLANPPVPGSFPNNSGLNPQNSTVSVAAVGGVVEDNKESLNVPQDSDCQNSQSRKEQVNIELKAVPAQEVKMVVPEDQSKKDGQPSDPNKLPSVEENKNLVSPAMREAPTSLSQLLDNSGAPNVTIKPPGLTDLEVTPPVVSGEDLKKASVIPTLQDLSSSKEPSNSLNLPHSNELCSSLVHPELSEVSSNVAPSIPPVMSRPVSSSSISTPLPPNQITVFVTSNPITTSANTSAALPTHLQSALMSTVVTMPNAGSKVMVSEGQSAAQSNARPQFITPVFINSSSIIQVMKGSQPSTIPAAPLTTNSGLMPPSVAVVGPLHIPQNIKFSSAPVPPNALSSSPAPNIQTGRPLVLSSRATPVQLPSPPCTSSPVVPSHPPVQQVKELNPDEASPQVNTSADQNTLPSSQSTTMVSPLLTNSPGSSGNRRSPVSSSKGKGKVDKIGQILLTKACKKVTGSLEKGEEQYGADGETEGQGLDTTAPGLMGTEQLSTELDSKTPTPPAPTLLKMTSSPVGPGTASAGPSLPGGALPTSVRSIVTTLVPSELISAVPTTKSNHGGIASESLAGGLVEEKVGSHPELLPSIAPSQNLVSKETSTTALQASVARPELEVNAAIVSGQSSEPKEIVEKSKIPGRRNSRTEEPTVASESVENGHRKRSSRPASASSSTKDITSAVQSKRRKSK
UniProt Q562F6: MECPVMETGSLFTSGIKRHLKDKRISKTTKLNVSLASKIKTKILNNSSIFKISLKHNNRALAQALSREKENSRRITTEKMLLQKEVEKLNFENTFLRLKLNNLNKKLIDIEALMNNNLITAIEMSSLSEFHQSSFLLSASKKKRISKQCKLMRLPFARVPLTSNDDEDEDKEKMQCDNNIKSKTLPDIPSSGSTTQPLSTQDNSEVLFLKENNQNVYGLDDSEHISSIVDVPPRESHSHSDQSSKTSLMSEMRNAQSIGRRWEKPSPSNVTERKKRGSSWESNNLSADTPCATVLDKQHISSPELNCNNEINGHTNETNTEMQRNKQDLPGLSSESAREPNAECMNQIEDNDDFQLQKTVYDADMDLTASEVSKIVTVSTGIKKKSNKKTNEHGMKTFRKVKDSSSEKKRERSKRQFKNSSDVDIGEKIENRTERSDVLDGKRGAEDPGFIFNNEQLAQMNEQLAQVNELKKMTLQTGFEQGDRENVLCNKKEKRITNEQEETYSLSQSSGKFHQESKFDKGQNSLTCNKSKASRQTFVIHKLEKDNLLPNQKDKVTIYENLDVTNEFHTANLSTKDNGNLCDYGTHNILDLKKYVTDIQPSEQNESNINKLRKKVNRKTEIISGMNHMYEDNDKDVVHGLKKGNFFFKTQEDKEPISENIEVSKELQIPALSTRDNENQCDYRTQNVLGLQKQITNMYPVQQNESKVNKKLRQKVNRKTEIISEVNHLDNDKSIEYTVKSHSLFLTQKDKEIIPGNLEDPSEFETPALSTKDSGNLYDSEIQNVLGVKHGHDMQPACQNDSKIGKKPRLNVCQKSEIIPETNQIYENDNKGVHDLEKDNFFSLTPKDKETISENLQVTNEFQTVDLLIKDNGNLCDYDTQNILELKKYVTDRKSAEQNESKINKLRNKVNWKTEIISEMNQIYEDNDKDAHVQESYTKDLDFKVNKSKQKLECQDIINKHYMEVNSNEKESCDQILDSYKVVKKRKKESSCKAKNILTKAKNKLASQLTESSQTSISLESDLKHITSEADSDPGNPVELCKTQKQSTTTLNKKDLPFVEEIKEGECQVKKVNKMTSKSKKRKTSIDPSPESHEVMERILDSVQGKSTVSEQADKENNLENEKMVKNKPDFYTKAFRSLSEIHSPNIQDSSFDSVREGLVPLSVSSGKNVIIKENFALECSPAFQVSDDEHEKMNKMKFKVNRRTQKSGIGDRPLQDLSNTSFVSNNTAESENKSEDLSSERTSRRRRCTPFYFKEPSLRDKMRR
UniProt Q14C86: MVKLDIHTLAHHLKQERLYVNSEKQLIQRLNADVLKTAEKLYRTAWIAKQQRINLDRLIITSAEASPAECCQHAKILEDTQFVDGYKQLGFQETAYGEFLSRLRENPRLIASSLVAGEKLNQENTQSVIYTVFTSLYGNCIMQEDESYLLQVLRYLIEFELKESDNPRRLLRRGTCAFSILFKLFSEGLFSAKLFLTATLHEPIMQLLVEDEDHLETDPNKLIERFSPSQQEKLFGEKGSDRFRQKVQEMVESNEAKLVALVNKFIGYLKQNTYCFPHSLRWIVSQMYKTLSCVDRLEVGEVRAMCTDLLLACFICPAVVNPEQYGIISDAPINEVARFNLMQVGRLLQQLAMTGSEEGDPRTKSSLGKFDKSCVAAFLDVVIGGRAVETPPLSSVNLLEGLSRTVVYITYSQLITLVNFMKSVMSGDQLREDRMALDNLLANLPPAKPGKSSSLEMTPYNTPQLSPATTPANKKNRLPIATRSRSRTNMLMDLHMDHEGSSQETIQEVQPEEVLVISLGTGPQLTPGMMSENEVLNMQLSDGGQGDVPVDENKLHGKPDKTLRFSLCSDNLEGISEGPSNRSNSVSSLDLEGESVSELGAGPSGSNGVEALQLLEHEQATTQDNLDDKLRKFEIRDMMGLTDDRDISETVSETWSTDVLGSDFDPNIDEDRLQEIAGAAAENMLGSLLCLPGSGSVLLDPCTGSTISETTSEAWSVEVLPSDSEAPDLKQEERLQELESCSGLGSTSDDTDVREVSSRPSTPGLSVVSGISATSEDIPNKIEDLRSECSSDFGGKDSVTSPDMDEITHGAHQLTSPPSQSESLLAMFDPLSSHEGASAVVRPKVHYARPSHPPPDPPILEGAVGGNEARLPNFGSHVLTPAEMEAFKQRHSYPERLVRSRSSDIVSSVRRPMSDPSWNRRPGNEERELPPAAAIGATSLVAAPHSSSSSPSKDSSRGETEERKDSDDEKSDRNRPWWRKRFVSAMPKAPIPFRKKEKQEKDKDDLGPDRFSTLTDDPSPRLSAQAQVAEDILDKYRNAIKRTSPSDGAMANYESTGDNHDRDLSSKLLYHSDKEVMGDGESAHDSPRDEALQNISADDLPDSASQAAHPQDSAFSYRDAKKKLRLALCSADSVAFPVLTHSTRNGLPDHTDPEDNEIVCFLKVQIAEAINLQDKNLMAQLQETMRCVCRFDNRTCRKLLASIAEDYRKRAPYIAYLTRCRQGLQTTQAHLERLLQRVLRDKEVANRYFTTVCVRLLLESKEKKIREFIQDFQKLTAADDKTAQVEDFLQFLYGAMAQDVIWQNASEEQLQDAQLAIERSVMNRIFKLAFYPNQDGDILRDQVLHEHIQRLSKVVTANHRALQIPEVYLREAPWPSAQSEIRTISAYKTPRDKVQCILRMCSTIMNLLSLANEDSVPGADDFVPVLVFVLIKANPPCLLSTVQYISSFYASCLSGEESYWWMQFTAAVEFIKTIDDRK

Compound: Nc1nc2c(ncn2[C@@H]2O[C@H](COP(=O)(O)OP(=O)(O)OP(=O)(O)O)[C@@H](O)[C@H]2O)c(=O)[nH]1 [guanosine triphosphate]
Experiment: NP40-soluble protein abundance relative to vehicle (solubility fold change) (ratio); higher = more soluble protein in presence of GTP
Experimental: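 Solubility proteome profiling in Jurkat crude lysate. Lysate was treated with Mg-GTP (0.1-10 mM) for 10 min at room temperature and 3 min at 37 °C, then solubilised with 0.8% NP40 and benzonase, followed by ultracentrifugation. Proteins were quantified by TMT10 LC-MS/MS; the value is the NP40-soluble abundance relative to the NP40-processed vehicle, from 3 independent experiments.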

Target	NP40-soluble protein abundance (concentration: 0.1mM)	NP40-soluble protein abundance (concentration: 0.5mM)	NP40-soluble protein abundance (concentration: 1mM)	NP40-soluble protein abundance (concentration: 2mM)	NP40-soluble protein abundance (concentration: 4mM)	NP40-soluble protein abundance (concentration: 6mM)	NP40-soluble protein abundance (concentration: 8mM)	NP40-soluble protein abundance (concentration: 10mM)
Q5T5I6 and related entries (UniProt Q9H4A5)	0.96 ± 0.075	0.928 ± 0.09	0.956 ± 0.12	0.951 ± 0.14	0.935 ± 0.074	0.928 ± 0.12	0.913 ± 0.17	0.892 ± 0.17
NCOA6 (UniProt Q14686)	1.05 ± 0.064	1.03 ± 0.042	1.06 ± 0.016	1.09 ± 0.063	1.07 ± 0.061	1.1 ± 0.03	1.13 ± 0.082	1.1 ± 0.025
UniProt Q15018	0.97 ± 0.051	0.965 ± 0.054	0.969 ± 0.064	0.942 ± 0.051	0.935 ± 0.045	0.973 ± 0.054	0.952 ± 0.057	0.942 ± 0.07
UniProt Q562F6 and related entries	0.9992 ± 0.0099	1.02 ± 0.087	1.04 ± 0.12	1.06 ± 0.038	0.979 ± 0.029	0.966 ± 0.047	1.03 ± 0.047	1.02 ± 0.045
UniProt Q14C86 and related entries	0.984 ± 0.049	0.977 ± 0.053	0.939 ± 0.035	0.915 ± 0.026	0.927 ± 0.025	0.907 ± 0.032	0.911 ± 0.036	0.887 ± 0.024
